# In PubChem BioAssay (NCATS):
# Inconclusive means that the source gave no clear call. Such entries were picked first, then a sample of the others. Where the call is inconclusive, the potency comes from a doubtful curve fit. Activity calls are given as the source filed them. The call rests on the fitted dose curve; in most records, active means well fitted cell-killing curve with a large enough effect; inconclusive means small, poorly fitted or top-dose-only effect, or effect the other way; inactive means no such curve, though single readings can be large or run the other way. Where a SMILES comes first, the peptide text is derived from it. [ ]: non-standard residue; d: D form. The star is where a group is joined. Sta = CC(C)C[C@H](N)[C@@H](O)CC(=O)O; Isovaleryl = CC(C)CC(=O)*
# Test: Quantitative High-Throughput drug screen in 47 multiple myeloma cell lines against the NCATS MIPE library collection: KMM1_JCRB cell viability assay (AID 1918960); further: nearly all actives have a fitted effect of over 30% in size;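 on viability (% of DMSO): 100% = DMSO-treated cells and 0% = medium-only wells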
# Settings: KMM1 myeloma viability, CellTiter-Glo ATP luminescence, 48 h; viability (% of DMSO): at 45.8 µM (top of the series)
# Summary of the method: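 Here, 48 h treatment with MIPE 4.0 agents at 37 °C preceded an ATP luminescence read. Plating density was 500 cells per well.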
# Potency means the concentration at half of the fitted maximal effect.
SMILES,Potency,viability (% of DMSO)
c1ccc2c(-c3cnn4cc(-c5ccc(N6CCNCC6)cc5)cnc34)ccnc2c1,"inconclusive: 2350 nM [cytotoxic, full curve, poor fit]",
OC[C@H]1O[C@@H](Oc2ccc(O)cc2)[C@H](O)[C@@H](O)[C@H]1O,,inactive: 90.9%
Cc1ccc(O)c(C(CCN(C(C)C)C(C)C)c2ccccc2)c1 (stereo not drawn),,inactive: 112%
CCC[C@H](N[C@@H](C)C(=O)N1[C@@H]2CCCC[C@H]2C[C@H]1C(=O)O)C(=O)OCC,"inconclusive: 18700 nM [cytotoxic, partial curve, poor fit]",
CC1(C)[C@H](C(=O)O)N2C(=O)C[C@H]2S1(=O)=O,,inactive: 111%

# Test: Quantitative High-Throughput drug screen in 47 multiple myeloma cell lines against the NCATS MIPE library collection: Karpas417_ECACC cell viability assay (AID 1918961);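 on viability (% of DMSO): 100% = DMSO only wells and 0% = media only wells without cells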
# Settings: Karpas417 myeloma viability, CellTiter-Glo ATP luminescence, 48 h; viability (% of DMSO): at 45.8 µM (top of the series) unless noted
# Summary of the method: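 qHTS of the MIPE 4.0 collection: 500 myeloma cells/well, 48 h drug exposure at 37C in 5% CO2, then CellTiter-Glo for 5 min at room temperature before luminescence reading.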
SMILES,Potency,viability (% of DMSO)
CC(C)C1CCC(C(=O)N[C@H](Cc2ccccc2)C(=O)O)CC1 (stereo partly drawn),"inconclusive: 3.7 nM [rising, full curve, poor fit]",
Cn1cnc2c1c(=O)[nH]c(=O)n2C,active: 9350 nM,
Clc1ccc(C(Cn2ccnc2)OCc2ccsc2Cl)c(Cl)c1 (stereo not drawn),active: 18700 nM,
CCC(=O)NC[C@H](Cc1ccc(OCCc2nc(-c3ccccc3)oc2C)cc1)NC(C)=CC(=O)c1ccc(C(F)(F)F)cc1,"inconclusive: 37.2 nM [cytotoxic, full curve, poor fit]",
CCCCCCCCCCCC(CC1OC(=O)C1CCCCCC)OC(=O)C(CC(C)C)NC=O (stereo not drawn),"inconclusive: 59 nM [cytotoxic, full curve, poor fit]",
CC1CC2C3CCC4=CC(=O)C=C[C@]4(C)[C@@]3(F)[C@@H](O)C[C@]2(C)[C@@]1(O)C(=O)CO (stereo partly drawn),"inconclusive: 37200 nM [rising, partial curve, poor fit]",
Cn1cc(C=C2C(=O)Nc3cccnc32)c2ccccc21,"inconclusive: 1320 nM [cytotoxic, full curve, poor fit]",
Nc1nc(OCc2ccccc2)c2[nH]cnc2n1,active: 16600 nM,
C=CCc1cc(OC)c(O)c(C(=O)NCCO)c1,,inactive: 143%
COCCCOc1cc(C[C@@H](C[C@H](N)[C@@H](O)C[C@H](C(=O)NCC(C)(C)C(N)=O)C(C)C)C(C)C)ccc1OC,"inconclusive: 13200 nM [cytotoxic, partial curve, poor fit]",
O=C(C=Cc1cccnc1)NCCCCC1CCN(C(=O)c2ccccc2)CC1,active: 13200 nM,
C[N+]1(C)[C@@H]2CC(OC(=O)[C@H](CO)c3ccccc3)C[C@H]1[C@H]1O[C@@H]12 (stereo partly drawn),"inconclusive: 23.5 nM [cytotoxic, full curve, poor fit]",
CNS(=O)(=O)Cc1ccc2[nH]cc(CCN(C)C)c2c1,,active: 103%
CC[C@H](NC(C)C)[C@H](O)c1ccc(O)c2[nH]c(=O)ccc12,"inconclusive: 2.3 nM [cytotoxic, full curve, poor fit]",
CC(C)Nc1cc(C(F)(F)F)cc2nc(NC(=O)c3cccnc3)nn12,"inconclusive: 5.9 nM [rising, full curve, poor fit]",
CN[C@@H](C)[C@H]1[C@H](O)C[C@@]2(C)[C@@H]3CC[C@H]4C(C)(C)[C@@H](NC)CC[C@@]45C[C@@]35CC[C@]12C,"inconclusive: 3.3 nM [cytotoxic, full curve, poor fit]",
CCn1cc(C(=O)O)c(=O)c2cc(F)c(N3CCNCC3)nc21,"inconclusive: 37200 nM [rising, single point]",

SMILES,Potency,viability (% of DMSO)
CC[C@H](C=C[C@@H](C)[C@H]1CC[C@H]2[C@@H]3CC=C4C[C@@H](O)CC[C@]4(C)[C@@H]3CC[C@]12C)C(C)C,"inconclusive: 22.9 nM [cytotoxic, full curve, poor fit]",
CC1COc2c(N3CCN(C)CC3)c(F)cc3c(=O)c(C(=O)O)cn1c23 (stereo not drawn),"inconclusive: 33.2 nM [cytotoxic, full curve, poor fit]",
Cc1cccc(-c2nn(C(=S)Nc3ccccc3)cc2-c2ccnc3ccccc23)n1,"inconclusive: 5900 nM [cytotoxic, partial curve, poor fit]",
O=C(O)c1ccc(-c2c[nH]c3ncc(-c4ccccc4)cc23)cc1C1CCCC1,"inconclusive: 2.3 nM [cytotoxic, full curve, poor fit]",
CN1C(C(=O)Nc2ccccn2)=C(O)c2ccccc2S1(=O)=O,,inactive: 123%
COC(=O)N1CCN(Cc2cccc(NC(=O)Nc3ccc(C)nc3)c2F)CC1,active: 4.7 nM,
CC[C@H]1OC(=O)[C@H](C)[C@@H](O[C@H]2C[C@@](C)(OC)[C@@H](O)[C@H](C)O2)[C@H](C)[C@@H](O[C@@H]2O[C@H](C)C[C@H](N(C)C)[C@H]2O)[C@](C)(O)C[C@H](C)C(=NOCOCCOC)[C@H](C)[C@@H](O)[C@]1(C)O,"inconclusive: 9.3 nM [cytotoxic, full curve, poor fit]",
CC1(C)CCC[C@@]2(C)[C@@H]1CC[C@@]1(C)OC(=O)C[C@H]21,"inconclusive: 469 nM [cytotoxic, full curve, poor fit]",
COc1ncnc(NS(=O)(=O)c2ccc(N)cc2)c1OC,,inactive: 97.4%
C[C@@]1(c2cc(-c3cncnc3)c(F)cc2F)CCSC(N)=N1,active: 83.3 nM,
COc1ccc(Nc2nccc(NCCO)n2)cc1,"inconclusive: 37.2 nM [cytotoxic, full curve, poor fit]",
c1ccc2c(-c3cnn4cc(-c5ccc(N6CCNCC6)cc5)cnc34)ccnc2c1,"inconclusive: 1320 nM [cytotoxic, full curve, poor fit]",
CCC[C@H](N[C@@H](C)C(=O)N1[C@@H]2CCCC[C@H]2C[C@H]1C(=O)O)C(=O)OCC,"inconclusive: 1.9 nM [rising, full curve, poor fit]",
CC1(C)[C@H](C(=O)O)N2C(=O)C[C@H]2S1(=O)=O,"inconclusive: 41.8 nM [cytotoxic, full curve, poor fit]",
CC(C)CC(=O)N[C@H](C(=O)N[C@H](C(=O)N[C@@H](CC(C)C)[C@@H](O)CC(=O)N[C@@H](C)C(=O)N[C@@H](CC(C)C)[C@@H](O)CC(=O)O)C(C)C)C(C)C (Isovaleryl-VV[Sta]A[Sta]-OH),,inactive: 124%
O=C(O)C1=CC(O)C(O)[C@H](O)C1 (stereo partly drawn),"inconclusive: 6.6 nM [rising, full curve, poor fit]",
